# Cleaved PARP after 72 h of treatment

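Human melanoma cell lines in 1,536-well plates were treated with a pair of drugs for 72 h, then fixed, stained and imaged. Each value is the cleaved-PARP-positive fraction of nuclei relative to DMSO-treated wells, in %, so that 100 equals the control and higher values mean more apoptosis. Concentrations were fixed for each drug; these are the higher of two levels. The file gives one value for each pair and line, without errors, so small differences may be noise. Basal and induced levels differ widely between cell lines.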
Only some of the drugs and lines screened are listed, without regard to their results.
A dash means that no value is listed here.

Drugs:
docetaxel, 0.0005 µM: CC(=O)O[C@@]12CO[C@@H]1C[C@H](O)[C@@]1(C)C(=O)[C@H](O)C3=C(C)[C@@H](OC(=O)[C@H](O)[C@@H](NC(=O)OC(C)(C)C)c4ccccc4)C[C@@](O)([C@@H](OC(=O)c4ccccc4)[C@H]21)C3(C)C
A-769662, 10 µM: N#Cc1c(O)c2c(-c3ccc(-c4ccccc4O)cc3)csc2[nH]c1=O
lestaurtinib, 0.02 µM: C[C@]12O[C@H](C[C@]1(O)CO)n1c3ccccc3c3c4c(c5c6ccccc6n2c5c31)CNC4=O
ENMD-2076, 0.2 µM: Cc1cc(Nc2cc(N3CCN(C)CC3)nc(/C=C/c3ccccc3)n2)n[nH]1
OSU-03012, 5 µM: NCC(=O)Nc1ccc(-n2nc(C(F)(F)F)cc2-c2ccc3c(ccc4ccccc43)c2)cc1
NVP-TAE684, 0.4 µM: COc1cc(N2CCC(N3CCN(C)CC3)CC2)ccc1Nc1ncc(Cl)c(Nc2ccccc2S(=O)(=O)C(C)C)n1
decitabine, 0.5 µM: Nc1ncn([C@H]2C[C@H](O)[C@@H](CO)O2)c(=O)n1
BI-78D3, 1 µM: O=c1[nH]nc(Sc2ncc([N+](=O)[O-])s2)n1-c1ccc2c(c1)OCCO2
nutlin-3, 0.5 µM: COc1ccc(C2=N[C@@H](c3ccc(Cl)cc3)[C@@H](c3ccc(Cl)cc3)N2C(=O)N2CCNC(=O)C2)c(OC(C)C)c1
RKI-983, 2 µM: C[C@@H](N)c1ccc(C(=O)Nc2ccnc3[nH]ccc23)cc1

Drugs,WM1745,501mel,WM3619,SK-MEL-30,COLO 800,MeWo,C32,SK-MEL-28,UACC-62,MEL-HO,IST-MEL1,RPMI-7951
lestaurtinib + A-769662,-,77.8,106,48.0,76.9,75.5,156,54.0,81.7,149,66.6,93.6
docetaxel + OSU-03012,258,-,366,2770,680,1110,385,746,251,321,134,242
OSU-03012 + BI-78D3,78.7,-,91.3,221,120,175,28.0,359,144,71.5,231,31.3
nutlin-3 + NVP-TAE684,-,420,101,71.1,156,125,130,49.1,317,118,72.9,144
docetaxel + BI-78D3,202,-,173,305,190,640,876,1310,380,102,618,257
lestaurtinib + docetaxel,371,-,167,935,294,1640,175,472,340,228,419,239
decitabine + BI-78D3,114,-,120,117,49.8,291,141,30.3,310,171,199,148
RKI-983 + nutlin-3,232,-,118,160,125,251,1070,313,303,66.2,110,161
docetaxel + A-769662,-,163,131,197,191,986,85.0,512,362,219,209,812
A-769662 + NVP-TAE684,146,50.6,102,46.5,107,127,88.2,85.8,56.5,102,32.0,70.1
RKI-983 + lestaurtinib,189,-,89.0,88.1,64.6,193,164,196,115,168,101,615
decitabine + nutlin-3,114,-,108,56.1,58.0,129,412,92.2,283,106,150,167
RKI-983 + OSU-03012,154,-,158,2290,107,280,1510,1070,380,657,204,197
decitabine + ENMD-2076,118,-,111,65.7,81.5,241,59.0,36.9,284,268,138,164
BI-78D3 + A-769662,-,58.1,70.6,133,28.5,104,81.2,72.7,87.5,161,104,115
RKI-983 + ENMD-2076,205,-,119,161,220,230,393,183,280,602,159,281
NVP-TAE684 + lestaurtinib,-,247,124,167,256,168,97.3,121,306,377,108,145
BI-78D3 + ENMD-2076,131,-,86.4,80.1,137,107,169,155,187,25.5,83.8,67.4
docetaxel + nutlin-3,246,-,214,377,516,782,953,128,410,178,138,274
A-769662 + nutlin-3,-,91.8,67.5,103,165,61.6,165,85.4,136,111,161,154
BI-78D3 + NVP-TAE684,-,136,114,60.5,144,113,99.2,38.9,220,97.2,134,175
decitabine + NVP-TAE684,-,47.9,98.2,98.6,272,157,80.9,43.5,341,303,137,154
A-769662 + OSU-03012,108,2420,1770,731,103,108,93.5,1150,181,28.0,258,85.3
RKI-983 + decitabine,237,-,139,24.7,104,625,346,115,308,203,252,459
ENMD-2076 + OSU-03012,175,-,116,238,95.8,133,50.0,255,175,247,115,356
nutlin-3 + lestaurtinib,132,-,113,113,42.7,118,65.5,117,252,46.5,40.1,444
lestaurtinib + OSU-03012,76.2,-,86.4,616,92.9,71.2,46.6,413,104,80.3,79.7,49.5
RKI-983 + A-769662,-,70.0,104,251,148,447,112,200,249,137,82.1,82.7
NVP-TAE684 + RKI-983,-,427,124,156,224,288,131,388,368,85.2,130,154
ENMD-2076 + NVP-TAE684,-,145,88.4,151,252,71.6,129,219,253,101,127,58.0
BI-78D3 + RKI-983,162,-,139,159,202,375,537,238,392,116,133,140
lestaurtinib + decitabine,120,-,114,73.9,49.5,92.3,30.8,218,282,209,64.5,114
nutlin-3 + ENMD-2076,146,-,214,117,121,45.8,184,76.5,353,134,50.6,143
docetaxel + RKI-983,276,-,153,1620,259,1820,963,1990,332,177,239,218
A-769662 + ENMD-2076,-,67.9,127,75.3,89.5,141,72.0,49.4,278,84.6,9460,58.2
A-769662 + decitabine,-,49.0,249,122,114,217,82.6,98.6,129,84.6,206,106
NVP-TAE684 + docetaxel,-,196,149,467,75.8,695,162,921,431,155,197,386

For reference, 2 entries once more:

| Drugs | WM1745 | 501mel | WM3619 | SK-MEL-30 | COLO 800 | MeWo | C32 | SK-MEL-28 | UACC-62 | MEL-HO | IST-MEL1 | RPMI-7951 |
|---|---|---|---|---|---|---|---|---|---|---|---|---|
| RKI-983 + A-769662 | - | 70.0 | 104 | 251 | 148 | 447 | 112 | 200 | 249 | 137 | 82.1 | 82.7 |
| docetaxel + A-769662 | - | 163 | 131 | 197 | 191 | 986 | 85.0 | 512 | 362 | 219 | 209 | 812 |

From a melanoma drug combination screen (doi:10.1371/journal.pone.0140310); values rounded.